The inconclusive results got no clear call from the source; some entries with a clear call stand among them for comparison. For some of these results: Where the call is inconclusive, the potency comes from a doubtful curve fit. Activity calls are given as the source filed them. Calls come from the whole dose curve; as a rule, active = well fitted curve in the direction sought with a large enough effect; inconclusive = small, poorly fitted or top-dose-only effect, or another doubt; inactive = no such curve, though single readings can be large; an effect the other way counts as inactive or inconclusive.
How the values were obtained:
[1] = Quantitative High-Throughput drug screen in 47 multiple myeloma cell lines against the NCATS MIPE library collection: Delta47_JCRB cell viability assay (AID 1918925; note: nearly all actives have a fitted effect of over 45% in size); conditions: Delta47 myeloma viability, CellTiter-Glo ATP, 48 h; viability (% of DMSO): at 45.8 µM (top of the series)
How it was run: (§1)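 Primary qHTS used for cherry-picking: cells at 500/well, library compounds for 48 h (37C, 5% CO2), luminescent ATP assay.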

[2] = Quantitative High-Throughput drug screen in 47 multiple myeloma cell lines against the NCATS MIPE library collection: AMO1_DSMZ cell viability assay (AID 1918927; note: nearly all actives have a fitted effect of over 30% in size)
How it was run: as §1

[3] = Quantitative High-Throughput drug screen in 47 multiple myeloma cell lines against the NCATS MIPE library collection: ARP1_JJKsccF8 cell viability assay (AID 1918928; note: nearly all actives have a fitted effect of over 40% in size)
How it was run: (§2)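 Each line was plated at 500 cells/well and treated 48 h with library drugs. Viability came from CellTiter-Glo luminescence relative to DMSO and cell-free medium controls.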

[4] = Quantitative High-Throughput drug screen in 47 multiple myeloma cell lines against the NCATS MIPE library collection: Karpas417_ECACC cell viability assay (AID 1918961); conditions: Karpas417 myeloma viability, CellTiter-Glo ATP luminescence, 48 h; viability (% of DMSO): at 45.8 µM (top of the series)
How it was run: (§3)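 Luminescent ATP measurement with CellTiter-Glo gives viability, scaled between DMSO-only wells (100%) and media-only wells (0%). Cells, 500 per well, faced library compounds for 48 hours at 37C.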

[5] = Quantitative High-Throughput drug screen in 47 multiple myeloma cell lines against the NCATS MIPE library collection: KHM11_PLB cell viability assay (AID 1918962); conditions: KHM11 myeloma cell viability, CellTiter-Glo ATP luminescence, 48 h; series mostly up to 45.8 µM; note: nearly all actives have a fitted effect of over 35% in size
How it was run: (§4)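 qHTS of the MIPE 4.0 collection: 500 myeloma cells/well, 48 h drug exposure at 37C in 5% CO2, then CellTiter-Glo for 5 min at room temperature before luminescence reading.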

[6] = Quantitative High-Throughput drug screen in 47 multiple myeloma cell lines against the NCATS MIPE library collection: JIM3_ECACC cell viability assay (AID 1918963; note: nearly all actives have a fitted effect of over 35% in size)
How it was run: as §4

[7] = Quantitative High-Throughput drug screen in 47 multiple myeloma cell lines against the NCATS MIPE library collection: JIM1_ECACC cell viability assay (AID 1918964); conditions: JIM1 myeloma viability, CellTiter-Glo ATP luminescence, 48 h; viability (% of DMSO): at 45.8 µM (top of the series)
How it was run: as §1

[8] = Quantitative High-Throughput drug screen in 47 multiple myeloma cell lines against the NCATS MIPE library collection: INA6_PLB cell viability assay (AID 1918965; note: nearly all actives have a fitted effect of over 55% in size); conditions: INA6 myeloma viability, CellTiter-Glo ATP luminescence, 48 h; viability (% of control): at 45.8 µM (top of the series)
How it was run: as §3

[9] = Quantitative High-Throughput drug screen in 47 multiple myeloma cell lines against the NCATS MIPE library collection: JJN3_DSMZ cell viability assay (AID 1918966; note: nearly all actives have a fitted effect of over 50% in size); conditions: JJN3 myeloma cells viability, CellTiter-Glo ATP, 48 h; viability, % of DMSO: at 45.8 µM (top of the series)
How it was run: as §1

[10] = Quantitative High-Throughput drug screen in 47 multiple myeloma cell lines against the NCATS MIPE library collection: ARD_JJKsccE7 cell viability assay (AID 1918929); conditions: ARD myeloma cell line viability, CellTiter-Glo, 48 h; viability: at 45.8 µM (top of the series)
How it was run: as §1

[11] = Quantitative High-Throughput drug screen in 47 multiple myeloma cell lines against the NCATS MIPE library collection: Karpas620_DSMZ cell viability assay (AID 1918959); conditions: Karpas620 myeloma viability, CellTiter-Glo ATP luminescence, 48 h; viability (% of DMSO): at 45.8 µM (top of the series); note: nearly all actives have a fitted effect of over 30% in size
How it was run: as §4

[12] = Quantitative High-Throughput drug screen in 47 multiple myeloma cell lines against the NCATS MIPE library collection: KMM1_JCRB cell viability assay (AID 1918960); conditions: KMM1 myeloma viability, CellTiter-Glo ATP luminescence, 48 h; viability (% of DMSO): at 45.8 µM (top of the series); note: nearly all actives have a fitted effect of over 30% in size
How it was run: as §2

[13] = Quantitative High-Throughput drug screen in 47 multiple myeloma cell lines against the NCATS MIPE library collection: H1112_PLB cell viability assay (AID 1918967; note: nearly all actives have a fitted effect of over 30% in size)
How it was run: as §1

[14] = Quantitative High-Throughput drug screen in 47 multiple myeloma cell lines against the NCATS MIPE library collection: EJM_DSMZ cell viability assay (AID 1918926; note: nearly all actives have a fitted effect of over 30% in size)
How it was run: as §1

[15] = Quantitative High-Throughput drug screen in 47 multiple myeloma cell lines against the NCATS MIPE library collection: Karpas25_ECACC cell viability assay (AID 1918968; note: nearly all actives have a fitted effect of over 35% in size); conditions: Karpas25 myeloma viability, CellTiter-Glo ATP, 48 h; viability (% of control): at 45.8 µM (top of the series)
How it was run: as §1

[16] = Quantitative High-Throughput drug screen in 47 multiple myeloma cell lines against the NCATS MIPE library collection: KMS27_JCRB cell viability assay (AID 1918970); conditions: KMS27 myeloma cells, CellTiter-Glo ATP viability, 48 h; viability (% of DMSO): at 45.8 µM (top of the series); note: nearly all actives have a fitted effect of over 30% in size
How it was run: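 Each line is seeded at 500 cells per well and treated with library compounds for 48 hours under 37 °C, 5% CO2. CellTiter-Glo is then added for 5 min at room temperature before median relative luminescence is recorded.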
Potency is the fitted concentration of half-maximal effect.

Row | SMILES | Potency [1] | Potency [2] | Potency [3] | Potency [4] | Potency [5] | Potency [6] | Potency [7] | Potency [8] | Potency [9] | Potency [10] | Potency [11] | Potency [12] | Potency [13] | Potency [14] | Potency [15] | Potency [16]
1 | Cn1nnc2c(C(N)=O)ncn2c1=O | inconclusive: 0.469 µM [rising, partial curve, poor fit] | inactive | inactive | inconclusive: 0.296 µM [cytotoxic, full curve, poor fit] | inactive | inactive | inactive | inconclusive: 0.001 µM | inactive |  |  |  |  |  |  | 
2 | CC1(C)CCC2=C(O1)c1ccccc1C(=O)C2=O | active: 16.6 µM |  | active: 18.7 µM | inconclusive: 3.72 µM [cytotoxic, partial curve, poor fit] | inconclusive: 33.2 µM [cytotoxic, single point] |  | inconclusive: 2.96 µM [cytotoxic, full curve, poor fit] |  | inconclusive: 26.4 µM [cytotoxic, partial curve, poor fit] | inactive | active: 2.96 µM | inconclusive: 2.09 µM [cytotoxic, partial curve, poor fit] | inconclusive: 37.2 µM [cytotoxic, single point] |  |  | 
3 | O=C(Nc1cc2cc[nH]c2cn1)c1ccccc1 | active: 9.35 µM |  | inconclusive: 10.5 µM [cytotoxic, partial curve] | active: 2.96 µM |  |  |  |  | active: 9.35 µM |  | active: 4.69 µM | inconclusive: 0.833 µM [cytotoxic, full curve] |  | active: 8.33 µM |  | 
4 | CN(Cc1cc(Br)cc(Br)c1N)C1CCCCC1 | inactive |  |  | inconclusive: 3.72 µM [cytotoxic, full curve, poor fit] | inconclusive: 0.0012 µM [rising, full curve, poor fit] |  | inconclusive: 0.0296 µM [rising, full curve, poor fit] | inconclusive: 20.9 µM [cytotoxic, partial curve, poor fit] | inconclusive: 37.2 µM [cytotoxic, single point] | inactive |  | inconclusive: 0.148 µM [rising, full curve, poor fit] |  | inconclusive: 33.2 µM [cytotoxic, single point] | inconclusive: 33.2 µM [cytotoxic, single point] | 
5 | CC(=O)CC(c1ccccc1)c1c(O)c2ccccc2oc1=O (stereo not given) | inconclusive: 0.0047 µM [rising, full curve, poor fit] | inconclusive: 0.0235 µM [rising, full curve, poor fit] | inactive | inconclusive: 3.32 µM [cytotoxic, partial curve, poor fit] | inactive |  | inconclusive: 1.87 µM [rising, full curve, poor fit] | inactive | inconclusive: 0.0047 µM [rising, full curve, poor fit] |  |  |  | inactive |  | inactive | 
6 | Oc1ccc(C2CCN(c3ccnc4ccccc34)CC2)cc1O | active: 9.35 µM |  |  | inconclusive: 18.7 µM [cytotoxic, partial curve, poor fit] | active: 8.33 µM | active: 11.8 µM |  |  | active: 16.6 µM | inconclusive: 13.2 µM [cytotoxic, partial curve] | active: 16.6 µM | inconclusive: 13.2 µM [cytotoxic, partial curve] | inconclusive: 23.5 µM [cytotoxic, partial curve] | inconclusive: 13.2 µM [cytotoxic, partial curve] |  | 
7 | COc1ccnc(CS(=O)c2nc3ccc(OC(F)F)cc3[nH]2)c1OC (stereo not given) | inconclusive: 26.4 µM [cytotoxic, single point] | inactive |  | inconclusive: 2.96 µM [cytotoxic, partial curve, poor fit] | inconclusive: 0.264 µM [rising, full curve] | inactive | inconclusive: 18.7 µM [cytotoxic, partial curve, poor fit] | inconclusive: 16.6 µM [cytotoxic, partial curve, poor fit] | inconclusive: 0.0012 µM [rising, full curve, poor fit] | inconclusive: 0.0013 µM [cytotoxic, full curve, poor fit] | active: 29.6 µM |  | inconclusive: 20.9 µM [cytotoxic, partial curve] | inactive | inconclusive: 26.4 µM [cytotoxic, single point] | inconclusive: 23.5 µM [cytotoxic, partial curve, poor fit]

Reformatted as a markdown table: 2 of the compounds above

| Row | SMILES | Potency [1] | Potency [2] | Potency [3] | Potency [4] | Potency [5] | Potency [6] | Potency [7] | Potency [8] | Potency [9] | Potency [10] | Potency [11] | Potency [12] | Potency [13] | Potency [14] | Potency [15] | Potency [16] |
| --- | --- | --- | --- | --- | --- | --- | --- | --- | --- | --- | --- | --- | --- | --- | --- | --- | --- |
| 2 | CC1(C)CCC2=C(O1)c1ccccc1C(=O)C2=O | active: 16.6 µM |  | active: 18.7 µM | inconclusive: 3.72 µM [cytotoxic, partial curve, poor fit] | inconclusive: 33.2 µM [cytotoxic, single point] |  | inconclusive: 2.96 µM [cytotoxic, full curve, poor fit] |  | inconclusive: 26.4 µM [cytotoxic, partial curve, poor fit] | inactive | active: 2.96 µM | inconclusive: 2.09 µM [cytotoxic, partial curve, poor fit] | inconclusive: 37.2 µM [cytotoxic, single point] |  |  |  |
| 3 | O=C(Nc1cc2cc[nH]c2cn1)c1ccccc1 | active: 9.35 µM |  | inconclusive: 10.5 µM [cytotoxic, partial curve] | active: 2.96 µM |  |  |  |  | active: 9.35 µM |  | active: 4.69 µM | inconclusive: 0.833 µM [cytotoxic, full curve] |  | active: 8.33 µM |  |  |
